Holding throughout (test): glycan array binding signal (z-score within array); higher = stronger binding
Holding throughout (settings): glycan notation: IUPAC condensed, linker removed

The target in assay [1] is Gal(b1-4)GalNAc(b1-3)[Fuc(a1-2)]Gal(b1-4)GlcNAc. Put shortly:
(§1)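 Columns mapping to the same glycan were averaged after glycan names were converted to IUPAC-condensed notation. The data come from 3228 arrays in the Consortium for Functional Glycomics database, limited to those with an available protein sequence. Binding is reported as a within-array Z-score averaged across arrays of one protein sequence and across linkers.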

In a further assay the target is Gal(b1-4)Glc. Put shortly:
as §1

The next assay has as its target Gal(b1-4)Glc6S. In short, it runs like this: as §1
A further assay addresses Gal(b1-4)GlcNAc. Put shortly: as §1
Assay [2] addresses Gal(b1-4)GlcNAc(a1-6)Gal(b1-4)GlcNAc. In short, it runs like this:
as §1

The next assay has as its target Gal(b1-4)GlcNAc(b1-2)Man. In short, it runs like this: as §1
In assay [3] the target is Gal(b1-4)GlcNAc(b1-2)Man(a1-3)Man(b1-4)GlcNAc(b1-4)GlcNAc. Put shortly: as §1
Assay [4] deals with Gal(b1-4)GlcNAc(b1-2)Man(a1-3)[Gal(b1-4)GlcNAc(b1-2)Man(a1-6)]Man(b1-4)GlcNAc(b1-4)GlcNAc. Put shortly: as §1
The target of assay [5] is Gal(b1-4)GlcNAc(b1-2)Man(a1-3)[Gal(b1-4)GlcNAc(b1-2)Man(a1-6)]Man(b1-4)GlcNAc(b1-4)[Fuc(a1-6)]GlcNAc. In short, it runs like this:
as §1

Assay [6] concerns the target Gal(b1-4)GlcNAc(b1-2)Man(a1-3)[Gal(b1-4)GlcNAc(b1-2)Man(a1-6)][Gal(b1-4)GlcNAc(b1-4)]Man(b1-4)GlcNAc(b1-4)[Fuc(a1-6)]GlcNAc. Put shortly:
as §1

Assay [7] has as its target Gal(b1-4)GlcNAc(b1-2)Man(a1-3)[Gal(b1-4)GlcNAc(b1-2)Man(a1-6)][GlcNAc(b1-4)]Man(b1-4)GlcNAc(b1-4)[Fuc(a1-6)]GlcNAc. Put shortly:
as §1

Assay [8] addresses Gal(b1-4)GlcNAc(b1-2)Man(a1-3)[GlcNAc(b1-2)Man(a1-6)]Man(b1-4)GlcNAc(b1-4)GlcNAc. Put shortly: as §1
Assay [9] addresses Gal(b1-4)GlcNAc(b1-2)Man(a1-3)[GlcNAc(b1-4)][Gal(b1-4)GlcNAc(b1-2)Man(a1-6)]Man(b1-4)GlcNAc(b1-4)GlcNAc. Put shortly: as §1
Assay [10] concerns the target Gal(b1-4)GlcNAc(b1-2)Man(a1-3)[Man(a1-6)]Man(b1-4)GlcNAc(b1-4)GlcNAc. Put shortly: as §1
In assay [11] the target is Gal(b1-4)GlcNAc(b1-2)Man(a1-6)Man(b1-4)GlcNAc(b1-4)GlcNAc. Put shortly:
as §1

Assay [12] addresses Gal(b1-4)GlcNAc(b1-2)Man(a1-6)[GlcNAc(b1-2)Man(a1-3)]Man(b1-4)GlcNAc(b1-4)GlcNAc. Put shortly: as §1
In assay [13] the target is Gal(b1-4)GlcNAc(b1-2)Man(a1-6)[Man(a1-3)]Man(b1-4)GlcNAc(b1-4)GlcNAc. Put shortly:
as §1

The target of assay [14] is Gal(b1-4)GlcNAc(b1-2)[Gal(b1-4)GlcNAc(b1-4)]Man(a1-3)[Gal(b1-4)GlcNAc(b1-2)Man(a1-6)]Man(b1-4)GlcNAc(b1-4)GlcNAc. Put shortly:
as §1

The target in assay [15] is Gal(b1-4)GlcNAc(b1-2)[Gal(b1-4)GlcNAc(b1-4)]Man(a1-3)[Gal(b1-4)GlcNAc(b1-2)[Gal(b1-4)GlcNAc(b1-6)]Man(a1-6)]Man(b1-4)GlcNAc(b1-4)GlcNAc. Put shortly:
as §1

For assay [16], the target named is Gal(b1-4)GlcNAc(b1-2)[Gal(b1-4)GlcNAc(b1-4)]Man(a1-3)[GlcNAc(b1-4)][Gal(b1-4)GlcNAc(b1-2)Man(a1-6)]Man(b1-4)GlcNAc(b1-4)GlcNAc. In short, it runs like this: as §1
Assay [17] concerns the target Gal(b1-4)GlcNAc(b1-2)[Gal(b1-4)GlcNAc(b1-4)]Man(a1-3)[GlcNAc(b1-4)][Gal(b1-4)GlcNAc(b1-2)[Gal(b1-4)GlcNAc(b1-6)]Man(a1-6)]Man(b1-4)GlcNAc(b1-4)GlcNAc. In short, it runs like this:
as §1

The target of assay [18] is Gal(b1-4)GlcNAc(b1-2)[Gal(b1-4)GlcNAc(b1-6)]Man(a1-6)[Gal(b1-4)GlcNAc(b1-2)Man(a1-3)]Man(b1-4)GlcNAc(b1-4)GlcNAc. Put shortly:
as §1

The other results are listed elsewhere or left out.

B1: XTP3-B-MRH2 (Homo sapiens), Q96DZ1 (protein)
chain: EFLSGSYCFRGGVGWWKYEFCYGKHVHQYHEDKDSGKTSVVVGTWNQEEHIEWAKKNTARAYHLQDDGTQTVRMVSHFYGNGDICDITDKPRQVTVKLKCKESDSPHAVTVYMLEPHSCQYILGVESPVICKILDTA
For the molecule B1, the “glycan array binding signal (z-score)” value was -0.814 in assay [1]; -0.594 with Gal(b1-4)Glc; -0.805 in the assay with Gal(b1-4)Glc6S; 0.365 with Gal(b1-4)GlcNAc; -0.34 in assay [2]; 0.283 in the assay with Gal(b1-4)GlcNAc(b1-2)Man. Moreover, the “glycan array binding signal (z-score)” value in [3] is 0.539; in [4] it was 1.04; in assay [5], -0.773; in [6], 0.353; in assay [7], -0.45; in [8], 0.26. The “glycan array binding signal (z-score)” value in assay [9] is -0.219; in assay [10], -0.398; in assay [11] it was -0.196; in [12], -1.09; in [13], 2.47; in assay [14], -0.599. For the same molecule, the “glycan array binding signal (z-score)” value in assay [15] is -0.455; in assay [16], -0.36; in assay [17], -0.691; in [18], -0.993.
